For this assay, the target named is TFPA (TF 113-432) (E. coli) (UniProt P0A850). Nature of the assay: NMR titration; isotopically labelled TFPA or TFN (~0.2 mM) with unlabelled λO, ZBD or ClpX∆ZBD (AAA+ added with ADP); 1H-15N TROSY and 1H-13C HMQC, 600 MHz, 22 °C; 50 mM Tris-HCl pH 7.5, 200 mM KCl, 25 mM MgCl2, 2% glycerol, 5 mM β-mercaptoethanol; both purified.

Sequences of proteins named here, by UniProt entry; tags and fusion partners are left off. Residues count along the entry.
UniProt P0A850, residues 113-432: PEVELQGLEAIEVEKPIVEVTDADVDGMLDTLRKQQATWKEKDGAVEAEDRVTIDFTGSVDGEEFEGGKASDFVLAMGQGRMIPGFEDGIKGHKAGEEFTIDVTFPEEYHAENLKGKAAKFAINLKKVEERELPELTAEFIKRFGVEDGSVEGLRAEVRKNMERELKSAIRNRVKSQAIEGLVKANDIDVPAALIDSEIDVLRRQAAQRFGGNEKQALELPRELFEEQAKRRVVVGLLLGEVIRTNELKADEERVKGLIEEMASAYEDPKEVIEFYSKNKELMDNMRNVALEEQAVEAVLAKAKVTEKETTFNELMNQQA

These are yes or no findings as the source states them, for the method shown. Some binding calls cover weakened binding; strength is not graded here.

B1: λ phage replication protein λO (protein, UniProt P03688 1-333)
chain: MTNTAKILNFGRGNFAGQERNVADLDDGYARLSNMLLEAYSGADLTKRQFKVLLAILRKTYGWNKPMDRITDSQLSEITKLPVKRCNEAKLELVRMNIIKQQGGMFGPNKNISEWCIPQNEGKSPKTRDKTSLKLGDCYPSKQGDTKDTITKEKRKDYSSENSGESSDQPENDLSVVKPDAAIQSGSKWGTAEDLTAAEWMFDMVKTIAPSARKPNFAGWANDIRLMRERDGRNHRDMCVLFRWACQDNFWSGNVLSPAKLRDKWTQLEINRNKQQAGVTASKPKLDLTNTDWIYGVDLKTSPHRWLTLTVSRCVGSPTTCRNSTTKSRRYSR
Take B1: the binding result is on record as “binds”.
